Results as given in patent US20240182495A1, “ANTIBACTERIAL COMPOUNDS” (JANSSEN SCIENCES IRELAND UNLIMITED COMPANY, priority 2021, published 2024).
Some results were stated once for a whole list of compounds, not compound by compound.

Assay: Mitochondrial toxicity (Glu/Gal) assay
Format: cell-based
Details: Glu/Gal ratio; low mitotoxicity, no alerts
Source text: The compounds of the invention/examples may have advantages associated with in vitro potency, kill kinetics (i.e. bactericidal effect) in vitro, PK properties, food effect, safety/toxicity (including liver toxicity, coagulation, 5-LO oxygenase), metabolic stability, Ames II negativity, MINT negativity, aqueous based solubility (and ability to formulate) and/or cardiovascular effect e.g. on animals (e.g. anesthetized guinea pig). Data that is generated/calculated may be obtained using standard methods/assays, for instance that are available in the literature or which may be performed by a supplier (e.g. Microsomal Stability Assay—Cyprotex, Mitochondrial toxicity (Glu/Gal) assay—Cyprotex, as well as literature CYP cocktail inhibition assays). GSH can be measured (reactive metabolites, […]) to observe if a dihydrodiol is observed by LCMS (fragmentation ions), which would correspond to a dihydroxylation on the core heterocycle.

Structure (SMILES): CCc1nc2ncc(Cl)cn2c1C(=O)NCc1ccc(-c2nc3n(n2)CCN(S(=O)(=O)C(F)(F)F)C3)cc1 [Compound 2]
- mitotoxicity in the Glu/Gal assay: < 2

Structure (SMILES): CCc1nc2ncc(C)cn2c1C(=O)NCc1ccc(-c2nc3n(n2)CCN(S(=O)(=O)C(F)(F)F)C3)c(F)c1 [Compound 7]
- mitotoxicity in the Glu/Gal assay: < 2
